Earlier results, collected in patent US20130005824A1, “TREATMENT OF ISCHEMIC TISSUE” (The Research Foundation of State University of New York, priority 2009, published 2013).

Conditions: cited from earlier work

COc1cc(/C=C/C(=O)CC(=O)/C=C/c2ccc(O)c(OC)c2)ccc1O [curcumin, (E,E)-1,7-bis (4-hydroxy-3-methoxyphenyl)-1,6-heptadiene-3,5,-dione]
solubility in organic solvents and alkalis (ethanol, alkalis, ketones, acetic acid and chloroform): soluble | solubility in water (water): insoluble
